Ten targets from the supplement of paper PMC12819154, “High-throughput peptide-centric local stability assay extends protein–ligand identification to membrane proteins, tissues and bacteria” (Nature Structural & Molecular Biology, 2025) can be followed below.

Sequences of proteins named here, by UniProt entry; tags and fusion partners are left off. A change or cut given only in a name is not applied to a line headed by its entry.
UniProt Q53FT3: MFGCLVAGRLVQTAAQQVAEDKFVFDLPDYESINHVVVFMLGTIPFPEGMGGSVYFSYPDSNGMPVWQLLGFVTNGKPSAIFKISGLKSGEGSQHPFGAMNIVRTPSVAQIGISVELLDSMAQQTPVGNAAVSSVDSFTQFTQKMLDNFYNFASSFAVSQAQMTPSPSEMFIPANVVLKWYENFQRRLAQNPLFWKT
UniProt Q5T011: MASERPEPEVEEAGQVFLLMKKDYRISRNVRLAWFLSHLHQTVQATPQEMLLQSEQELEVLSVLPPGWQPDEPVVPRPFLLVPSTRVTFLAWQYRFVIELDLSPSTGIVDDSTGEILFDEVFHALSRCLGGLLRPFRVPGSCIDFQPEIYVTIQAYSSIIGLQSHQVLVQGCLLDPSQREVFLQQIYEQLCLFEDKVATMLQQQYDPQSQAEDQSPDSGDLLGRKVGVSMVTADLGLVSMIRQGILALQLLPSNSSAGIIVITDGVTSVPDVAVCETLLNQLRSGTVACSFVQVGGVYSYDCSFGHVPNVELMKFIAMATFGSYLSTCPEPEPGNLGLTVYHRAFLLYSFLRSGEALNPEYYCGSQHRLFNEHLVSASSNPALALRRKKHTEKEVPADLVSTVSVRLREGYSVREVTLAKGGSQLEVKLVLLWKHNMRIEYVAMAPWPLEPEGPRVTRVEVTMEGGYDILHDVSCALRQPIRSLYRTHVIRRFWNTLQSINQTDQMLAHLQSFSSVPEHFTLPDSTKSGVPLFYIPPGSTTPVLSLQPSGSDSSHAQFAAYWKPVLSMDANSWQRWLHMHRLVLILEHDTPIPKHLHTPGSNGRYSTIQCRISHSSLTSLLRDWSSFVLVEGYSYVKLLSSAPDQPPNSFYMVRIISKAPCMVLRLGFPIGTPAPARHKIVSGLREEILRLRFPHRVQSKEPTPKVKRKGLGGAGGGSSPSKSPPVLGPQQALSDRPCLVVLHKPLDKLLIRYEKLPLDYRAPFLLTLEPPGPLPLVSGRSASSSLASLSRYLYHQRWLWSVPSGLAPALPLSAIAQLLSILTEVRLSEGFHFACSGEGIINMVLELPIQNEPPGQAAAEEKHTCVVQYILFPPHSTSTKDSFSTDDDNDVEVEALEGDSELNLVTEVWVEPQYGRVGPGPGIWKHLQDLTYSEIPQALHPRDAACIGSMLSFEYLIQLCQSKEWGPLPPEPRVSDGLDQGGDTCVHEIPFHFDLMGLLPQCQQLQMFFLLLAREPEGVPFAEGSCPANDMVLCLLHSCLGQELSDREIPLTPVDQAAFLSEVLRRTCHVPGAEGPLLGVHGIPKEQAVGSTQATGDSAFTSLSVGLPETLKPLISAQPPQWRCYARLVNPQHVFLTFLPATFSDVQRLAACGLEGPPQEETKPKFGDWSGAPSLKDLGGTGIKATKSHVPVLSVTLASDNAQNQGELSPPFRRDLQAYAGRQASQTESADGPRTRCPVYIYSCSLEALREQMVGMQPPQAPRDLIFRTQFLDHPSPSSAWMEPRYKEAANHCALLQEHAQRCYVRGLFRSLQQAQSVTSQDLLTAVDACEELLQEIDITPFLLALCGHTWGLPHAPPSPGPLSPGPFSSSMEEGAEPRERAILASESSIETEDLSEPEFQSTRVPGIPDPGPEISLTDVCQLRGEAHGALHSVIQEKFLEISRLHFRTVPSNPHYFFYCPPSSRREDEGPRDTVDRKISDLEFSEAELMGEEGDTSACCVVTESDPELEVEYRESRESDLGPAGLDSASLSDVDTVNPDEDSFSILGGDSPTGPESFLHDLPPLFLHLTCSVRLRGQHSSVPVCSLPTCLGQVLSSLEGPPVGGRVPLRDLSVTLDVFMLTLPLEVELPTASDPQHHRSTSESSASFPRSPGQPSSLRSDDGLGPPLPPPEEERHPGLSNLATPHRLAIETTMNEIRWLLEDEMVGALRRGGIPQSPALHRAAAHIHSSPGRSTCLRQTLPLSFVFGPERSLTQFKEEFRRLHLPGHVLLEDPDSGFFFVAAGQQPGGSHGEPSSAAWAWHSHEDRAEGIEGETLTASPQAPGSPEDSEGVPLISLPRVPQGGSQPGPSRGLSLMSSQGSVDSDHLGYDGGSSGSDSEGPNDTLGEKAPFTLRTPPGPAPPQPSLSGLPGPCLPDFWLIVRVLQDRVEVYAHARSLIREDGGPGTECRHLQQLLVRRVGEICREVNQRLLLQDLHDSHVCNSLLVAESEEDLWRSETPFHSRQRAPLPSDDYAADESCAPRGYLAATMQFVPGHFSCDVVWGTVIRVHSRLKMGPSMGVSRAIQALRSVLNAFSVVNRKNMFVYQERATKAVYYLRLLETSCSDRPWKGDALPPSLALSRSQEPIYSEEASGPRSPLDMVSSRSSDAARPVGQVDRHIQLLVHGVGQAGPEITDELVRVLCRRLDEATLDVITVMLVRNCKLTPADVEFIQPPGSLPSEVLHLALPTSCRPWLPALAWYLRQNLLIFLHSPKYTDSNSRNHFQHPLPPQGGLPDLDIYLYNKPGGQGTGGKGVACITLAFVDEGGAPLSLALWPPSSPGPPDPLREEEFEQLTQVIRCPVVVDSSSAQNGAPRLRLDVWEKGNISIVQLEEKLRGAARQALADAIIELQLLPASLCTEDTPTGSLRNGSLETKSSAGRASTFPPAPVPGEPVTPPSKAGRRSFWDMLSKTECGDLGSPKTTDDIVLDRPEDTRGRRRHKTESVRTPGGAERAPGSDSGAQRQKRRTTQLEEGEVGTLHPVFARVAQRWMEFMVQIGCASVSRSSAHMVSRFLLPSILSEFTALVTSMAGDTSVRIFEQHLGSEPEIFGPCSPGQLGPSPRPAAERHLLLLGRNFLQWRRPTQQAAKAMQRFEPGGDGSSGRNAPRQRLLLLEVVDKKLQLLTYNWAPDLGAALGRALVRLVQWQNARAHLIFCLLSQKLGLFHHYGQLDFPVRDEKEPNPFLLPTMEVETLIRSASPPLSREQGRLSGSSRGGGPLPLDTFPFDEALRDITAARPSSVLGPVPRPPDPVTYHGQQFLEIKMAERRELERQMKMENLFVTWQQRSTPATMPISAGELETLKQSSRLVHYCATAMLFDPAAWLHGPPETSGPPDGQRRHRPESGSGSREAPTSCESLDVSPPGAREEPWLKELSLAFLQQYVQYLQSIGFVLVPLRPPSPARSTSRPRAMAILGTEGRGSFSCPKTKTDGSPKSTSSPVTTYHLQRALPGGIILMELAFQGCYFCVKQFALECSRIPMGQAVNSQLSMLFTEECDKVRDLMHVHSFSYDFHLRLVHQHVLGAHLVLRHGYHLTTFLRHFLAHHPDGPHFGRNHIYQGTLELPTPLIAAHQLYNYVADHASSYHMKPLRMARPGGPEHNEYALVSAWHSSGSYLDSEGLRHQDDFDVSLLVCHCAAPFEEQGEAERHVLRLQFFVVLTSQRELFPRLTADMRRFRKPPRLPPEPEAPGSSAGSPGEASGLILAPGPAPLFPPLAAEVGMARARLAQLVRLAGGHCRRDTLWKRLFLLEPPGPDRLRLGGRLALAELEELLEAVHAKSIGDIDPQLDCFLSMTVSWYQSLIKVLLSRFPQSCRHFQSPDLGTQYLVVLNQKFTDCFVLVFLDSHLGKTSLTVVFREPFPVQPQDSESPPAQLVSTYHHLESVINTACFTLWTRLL
UniProt Q49AR2: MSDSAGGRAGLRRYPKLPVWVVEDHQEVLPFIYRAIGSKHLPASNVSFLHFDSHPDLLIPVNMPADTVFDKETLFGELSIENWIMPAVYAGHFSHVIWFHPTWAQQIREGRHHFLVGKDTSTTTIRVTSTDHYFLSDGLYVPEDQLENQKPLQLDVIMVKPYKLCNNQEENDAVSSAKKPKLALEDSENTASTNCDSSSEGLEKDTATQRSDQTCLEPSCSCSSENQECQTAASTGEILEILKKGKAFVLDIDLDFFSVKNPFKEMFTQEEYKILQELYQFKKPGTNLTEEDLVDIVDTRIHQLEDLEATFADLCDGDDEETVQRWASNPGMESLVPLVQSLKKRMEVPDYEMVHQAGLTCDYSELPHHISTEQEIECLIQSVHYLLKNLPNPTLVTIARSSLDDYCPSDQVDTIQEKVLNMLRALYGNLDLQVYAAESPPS
UniProt Q5JXB2: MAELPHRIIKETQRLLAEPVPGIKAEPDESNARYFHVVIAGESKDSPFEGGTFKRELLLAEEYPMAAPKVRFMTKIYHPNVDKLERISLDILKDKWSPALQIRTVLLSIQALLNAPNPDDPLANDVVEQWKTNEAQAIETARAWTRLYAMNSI
UniProt Q3SY56: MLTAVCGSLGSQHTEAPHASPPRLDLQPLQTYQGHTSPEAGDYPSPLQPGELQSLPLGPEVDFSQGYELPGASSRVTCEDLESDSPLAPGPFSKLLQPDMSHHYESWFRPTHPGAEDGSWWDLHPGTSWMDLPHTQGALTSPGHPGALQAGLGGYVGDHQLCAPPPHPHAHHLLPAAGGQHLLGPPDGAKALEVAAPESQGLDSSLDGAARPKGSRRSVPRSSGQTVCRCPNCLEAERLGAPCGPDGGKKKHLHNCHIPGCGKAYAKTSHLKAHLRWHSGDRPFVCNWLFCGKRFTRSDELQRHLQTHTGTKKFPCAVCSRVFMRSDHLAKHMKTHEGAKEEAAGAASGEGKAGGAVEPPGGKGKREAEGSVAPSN
UniProt Q5JQF8: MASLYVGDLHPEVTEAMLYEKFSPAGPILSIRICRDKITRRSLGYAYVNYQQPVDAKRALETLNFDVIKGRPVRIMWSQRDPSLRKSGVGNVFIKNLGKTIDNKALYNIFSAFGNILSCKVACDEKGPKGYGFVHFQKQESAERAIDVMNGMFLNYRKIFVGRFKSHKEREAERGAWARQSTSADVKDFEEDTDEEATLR
UniProt Q53EP0: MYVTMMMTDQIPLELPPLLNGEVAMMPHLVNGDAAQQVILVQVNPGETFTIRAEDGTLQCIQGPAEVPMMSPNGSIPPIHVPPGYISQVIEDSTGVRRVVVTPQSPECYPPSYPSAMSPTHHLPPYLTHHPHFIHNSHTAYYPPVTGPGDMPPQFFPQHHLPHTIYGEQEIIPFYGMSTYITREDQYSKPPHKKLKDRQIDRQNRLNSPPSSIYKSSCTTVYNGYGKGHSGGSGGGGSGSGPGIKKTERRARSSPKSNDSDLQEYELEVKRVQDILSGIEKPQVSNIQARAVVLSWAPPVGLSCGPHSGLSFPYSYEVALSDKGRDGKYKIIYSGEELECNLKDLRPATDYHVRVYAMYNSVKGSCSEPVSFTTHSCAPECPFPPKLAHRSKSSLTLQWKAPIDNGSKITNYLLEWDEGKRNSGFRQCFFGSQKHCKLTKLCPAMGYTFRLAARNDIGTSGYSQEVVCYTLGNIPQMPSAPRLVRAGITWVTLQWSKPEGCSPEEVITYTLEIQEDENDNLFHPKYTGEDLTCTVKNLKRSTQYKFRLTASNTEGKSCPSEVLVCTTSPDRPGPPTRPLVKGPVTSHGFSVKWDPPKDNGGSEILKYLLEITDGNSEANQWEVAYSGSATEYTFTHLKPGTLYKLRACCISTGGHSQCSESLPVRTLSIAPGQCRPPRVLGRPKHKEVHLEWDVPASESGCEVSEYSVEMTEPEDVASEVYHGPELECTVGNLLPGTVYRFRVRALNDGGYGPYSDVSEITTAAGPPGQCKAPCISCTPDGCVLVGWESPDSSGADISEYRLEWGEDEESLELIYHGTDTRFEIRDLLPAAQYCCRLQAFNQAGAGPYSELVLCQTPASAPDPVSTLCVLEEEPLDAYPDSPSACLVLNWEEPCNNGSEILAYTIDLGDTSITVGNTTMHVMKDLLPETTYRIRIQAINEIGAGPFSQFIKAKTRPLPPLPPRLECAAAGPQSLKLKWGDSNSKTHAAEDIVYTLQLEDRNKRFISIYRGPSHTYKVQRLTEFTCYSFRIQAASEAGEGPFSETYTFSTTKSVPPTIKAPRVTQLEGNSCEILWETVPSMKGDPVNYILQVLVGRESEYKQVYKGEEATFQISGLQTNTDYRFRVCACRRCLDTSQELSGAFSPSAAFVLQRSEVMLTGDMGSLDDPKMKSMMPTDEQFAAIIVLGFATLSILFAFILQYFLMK
UniProt Q5M9Q1: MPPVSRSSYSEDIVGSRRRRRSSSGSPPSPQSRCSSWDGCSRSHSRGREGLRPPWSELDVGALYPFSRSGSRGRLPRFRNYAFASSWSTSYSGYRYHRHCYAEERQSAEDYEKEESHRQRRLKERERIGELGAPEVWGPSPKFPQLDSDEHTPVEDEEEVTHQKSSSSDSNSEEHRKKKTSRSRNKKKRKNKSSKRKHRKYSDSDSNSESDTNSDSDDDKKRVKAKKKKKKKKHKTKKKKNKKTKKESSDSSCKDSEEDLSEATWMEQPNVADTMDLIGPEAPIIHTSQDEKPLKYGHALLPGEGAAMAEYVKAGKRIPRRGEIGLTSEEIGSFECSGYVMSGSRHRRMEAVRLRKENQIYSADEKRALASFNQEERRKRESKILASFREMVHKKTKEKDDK
UniProt Q5BKU9: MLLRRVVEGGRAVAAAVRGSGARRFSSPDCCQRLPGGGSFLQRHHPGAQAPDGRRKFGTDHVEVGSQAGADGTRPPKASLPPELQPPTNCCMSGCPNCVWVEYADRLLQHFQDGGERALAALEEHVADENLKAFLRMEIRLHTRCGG

The other results are listed elsewhere or left out. Small differences around the control level are noise.

Compound in this assay: Cc1nc(Nc2ncc(C(=O)Nc3c(C)cccc3Cl)s2)cc(N2CCN(CCO)CC2)n1 [dasatinib]
In words: log2 fold change of tryptic peptide abundance, ligand vs vehicle (limited proteolysis) (log2 ratio); higher = more trypsin-susceptible (destabilized). The settings on record: ligand concentration: 5 uM; sample: K562 cleared lysate.
For “UniProt Q53FT3 (peptide sequence: SGEGSQHPFGAMNIVR, peptide start residue: 89)”, the log2 fold change is -0.0919. The figure for “UniProt Q5T011 (peptide sequence: LFNEHLVSASSNPALALRR, peptide start residue: 369)” is -0.683; for “C5orf22 (peptide sequence: ILQELYQFK, peptide start residue: 274) (UniProt Q49AR2)” it is 0.0232; for “UBE2NL (peptide sequence: IYHPNVDK, peptide start residue: 75) (UniProt Q5JXB2)” it is -0.173. Consider “SP6 (peptide sequence: AGGAVEPPGGK, peptide start residue: 353) (UniProt Q3SY56)”, for which the log2 fold change was -0.508. The same measure for “UniProt Q5JQF8 (peptide sequence: KSGVGNVFIK, peptide start residue: 95)”: 0.266. The same measure for “FNDC3B (peptide sequence: SSCTTVYNGYGK, peptide start residue: 216) (UniProt Q53EP0)”: -0.701. The same measure for “TPRN (peptide sequence: GSNTFTVVPK, peptide start residue: 497) (UniProt Q4KMQ1)”: -0.326; for “UniProt Q5M9Q1 (peptide sequence: ENQIYSADEK, peptide start residue: 370)”: -0.182; for “OXLD1 (peptide sequence: ALAALEEHVADENLK, peptide start residue: 118) (UniProt Q5BKU9)”: 0.0837.
